Results published in the supplement of paper PMC10060354, “Discovery of a small molecule ligand of FRS2 that inhibits invasion and tumor growth” (Cellular Oncology, 2022).

Protein sequences, listed by entry. Tags and fused reporters are not part of them. Lines headed by an entry give the natural chain unless they say otherwise; changes in a name come on top.
UniProt A6NKT7, whole entry: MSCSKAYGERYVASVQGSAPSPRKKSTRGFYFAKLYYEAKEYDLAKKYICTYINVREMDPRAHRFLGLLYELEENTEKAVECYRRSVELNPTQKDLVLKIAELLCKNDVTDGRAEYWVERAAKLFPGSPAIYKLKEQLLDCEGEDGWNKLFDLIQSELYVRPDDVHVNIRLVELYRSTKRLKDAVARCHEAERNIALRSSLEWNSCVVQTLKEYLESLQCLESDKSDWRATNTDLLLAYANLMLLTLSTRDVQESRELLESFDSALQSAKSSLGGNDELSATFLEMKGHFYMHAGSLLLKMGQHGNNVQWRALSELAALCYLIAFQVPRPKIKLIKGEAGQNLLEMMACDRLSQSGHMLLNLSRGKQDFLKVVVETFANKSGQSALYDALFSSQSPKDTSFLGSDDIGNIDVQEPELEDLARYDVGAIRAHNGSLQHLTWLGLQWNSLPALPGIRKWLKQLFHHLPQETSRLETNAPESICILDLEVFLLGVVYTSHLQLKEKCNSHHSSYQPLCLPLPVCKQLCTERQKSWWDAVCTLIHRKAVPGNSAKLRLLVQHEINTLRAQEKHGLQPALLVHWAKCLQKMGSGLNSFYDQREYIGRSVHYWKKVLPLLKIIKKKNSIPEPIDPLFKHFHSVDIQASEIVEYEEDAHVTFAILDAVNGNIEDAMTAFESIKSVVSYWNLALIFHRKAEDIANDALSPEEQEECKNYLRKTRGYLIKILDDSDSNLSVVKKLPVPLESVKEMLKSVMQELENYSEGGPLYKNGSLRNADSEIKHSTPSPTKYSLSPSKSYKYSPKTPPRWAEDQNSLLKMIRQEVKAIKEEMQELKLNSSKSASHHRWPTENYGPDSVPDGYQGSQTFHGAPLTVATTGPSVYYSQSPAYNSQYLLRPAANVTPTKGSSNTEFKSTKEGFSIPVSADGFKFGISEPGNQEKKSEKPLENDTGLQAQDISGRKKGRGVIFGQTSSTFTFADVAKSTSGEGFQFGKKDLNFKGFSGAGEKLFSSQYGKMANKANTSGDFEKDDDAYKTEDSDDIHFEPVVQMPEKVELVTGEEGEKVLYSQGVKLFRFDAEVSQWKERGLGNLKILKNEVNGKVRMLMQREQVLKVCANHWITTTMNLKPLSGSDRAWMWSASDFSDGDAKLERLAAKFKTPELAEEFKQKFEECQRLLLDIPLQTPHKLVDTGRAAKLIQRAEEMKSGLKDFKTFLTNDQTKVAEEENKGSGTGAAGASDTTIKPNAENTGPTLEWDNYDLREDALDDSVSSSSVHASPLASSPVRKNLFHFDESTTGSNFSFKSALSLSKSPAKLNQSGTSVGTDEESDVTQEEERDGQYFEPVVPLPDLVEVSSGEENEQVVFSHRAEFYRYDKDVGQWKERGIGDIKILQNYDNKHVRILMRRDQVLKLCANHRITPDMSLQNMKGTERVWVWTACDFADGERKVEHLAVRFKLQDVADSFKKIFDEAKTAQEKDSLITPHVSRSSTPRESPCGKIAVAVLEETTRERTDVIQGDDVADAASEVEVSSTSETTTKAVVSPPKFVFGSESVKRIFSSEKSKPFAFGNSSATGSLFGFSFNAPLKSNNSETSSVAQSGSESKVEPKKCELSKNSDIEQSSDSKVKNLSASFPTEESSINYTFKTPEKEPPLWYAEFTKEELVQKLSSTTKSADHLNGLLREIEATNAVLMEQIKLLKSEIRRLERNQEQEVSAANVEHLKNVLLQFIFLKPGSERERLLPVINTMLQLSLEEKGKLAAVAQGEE
UniProt Q9NRD5, whole entry: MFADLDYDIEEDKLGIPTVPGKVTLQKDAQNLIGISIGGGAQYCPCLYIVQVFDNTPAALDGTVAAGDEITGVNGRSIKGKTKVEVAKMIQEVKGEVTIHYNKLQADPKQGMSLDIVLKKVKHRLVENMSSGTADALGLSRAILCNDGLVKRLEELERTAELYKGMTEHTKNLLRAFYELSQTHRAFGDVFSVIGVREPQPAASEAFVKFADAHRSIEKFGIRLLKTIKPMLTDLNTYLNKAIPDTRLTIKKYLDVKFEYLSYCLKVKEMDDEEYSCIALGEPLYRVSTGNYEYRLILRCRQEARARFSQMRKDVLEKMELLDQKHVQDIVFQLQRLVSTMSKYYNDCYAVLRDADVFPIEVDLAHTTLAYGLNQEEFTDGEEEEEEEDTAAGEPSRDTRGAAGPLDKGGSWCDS
UniProt O14521: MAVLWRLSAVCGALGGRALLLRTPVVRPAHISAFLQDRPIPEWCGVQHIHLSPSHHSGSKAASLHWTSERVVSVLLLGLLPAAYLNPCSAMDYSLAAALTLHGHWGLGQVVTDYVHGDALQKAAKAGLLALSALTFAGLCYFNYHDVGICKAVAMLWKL
UniProt A6NHG4: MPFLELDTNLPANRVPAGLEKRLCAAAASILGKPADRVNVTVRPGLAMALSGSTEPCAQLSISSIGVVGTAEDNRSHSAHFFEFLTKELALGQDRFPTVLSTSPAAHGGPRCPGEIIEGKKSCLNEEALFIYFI
UniProt Q9Y5Y5: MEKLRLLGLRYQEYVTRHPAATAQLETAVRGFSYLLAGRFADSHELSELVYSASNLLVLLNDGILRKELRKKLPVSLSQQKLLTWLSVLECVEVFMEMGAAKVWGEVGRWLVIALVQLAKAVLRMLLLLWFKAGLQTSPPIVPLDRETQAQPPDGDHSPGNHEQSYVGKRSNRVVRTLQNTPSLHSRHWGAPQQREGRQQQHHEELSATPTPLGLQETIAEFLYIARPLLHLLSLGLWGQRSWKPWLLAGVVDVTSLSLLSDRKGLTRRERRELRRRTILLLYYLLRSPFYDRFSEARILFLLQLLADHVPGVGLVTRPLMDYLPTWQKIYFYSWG
UniProt Q9HB71, whole entry: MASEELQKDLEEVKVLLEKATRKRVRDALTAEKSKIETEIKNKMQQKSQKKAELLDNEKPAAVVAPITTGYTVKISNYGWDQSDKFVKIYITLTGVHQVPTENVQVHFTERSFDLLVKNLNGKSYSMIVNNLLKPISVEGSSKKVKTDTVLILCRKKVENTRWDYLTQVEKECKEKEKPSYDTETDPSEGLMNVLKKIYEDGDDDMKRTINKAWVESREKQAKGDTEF
UniProt Q9UG63: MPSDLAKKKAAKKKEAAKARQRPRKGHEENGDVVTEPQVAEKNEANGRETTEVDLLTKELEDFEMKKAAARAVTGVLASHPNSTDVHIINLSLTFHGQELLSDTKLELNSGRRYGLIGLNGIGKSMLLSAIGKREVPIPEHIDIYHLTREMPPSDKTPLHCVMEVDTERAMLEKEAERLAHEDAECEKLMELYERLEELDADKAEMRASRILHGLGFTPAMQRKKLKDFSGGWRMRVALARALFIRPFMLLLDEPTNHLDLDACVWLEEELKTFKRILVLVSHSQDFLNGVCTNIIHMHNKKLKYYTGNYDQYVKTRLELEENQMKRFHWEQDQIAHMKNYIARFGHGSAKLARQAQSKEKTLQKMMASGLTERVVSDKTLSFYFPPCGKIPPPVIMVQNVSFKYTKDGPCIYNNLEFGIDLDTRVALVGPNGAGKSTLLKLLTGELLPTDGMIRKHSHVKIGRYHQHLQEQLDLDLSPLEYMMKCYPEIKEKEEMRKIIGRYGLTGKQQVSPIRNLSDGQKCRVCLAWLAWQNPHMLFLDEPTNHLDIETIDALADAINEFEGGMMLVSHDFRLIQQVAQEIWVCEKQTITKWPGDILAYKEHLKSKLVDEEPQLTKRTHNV
UniProt Q8N239: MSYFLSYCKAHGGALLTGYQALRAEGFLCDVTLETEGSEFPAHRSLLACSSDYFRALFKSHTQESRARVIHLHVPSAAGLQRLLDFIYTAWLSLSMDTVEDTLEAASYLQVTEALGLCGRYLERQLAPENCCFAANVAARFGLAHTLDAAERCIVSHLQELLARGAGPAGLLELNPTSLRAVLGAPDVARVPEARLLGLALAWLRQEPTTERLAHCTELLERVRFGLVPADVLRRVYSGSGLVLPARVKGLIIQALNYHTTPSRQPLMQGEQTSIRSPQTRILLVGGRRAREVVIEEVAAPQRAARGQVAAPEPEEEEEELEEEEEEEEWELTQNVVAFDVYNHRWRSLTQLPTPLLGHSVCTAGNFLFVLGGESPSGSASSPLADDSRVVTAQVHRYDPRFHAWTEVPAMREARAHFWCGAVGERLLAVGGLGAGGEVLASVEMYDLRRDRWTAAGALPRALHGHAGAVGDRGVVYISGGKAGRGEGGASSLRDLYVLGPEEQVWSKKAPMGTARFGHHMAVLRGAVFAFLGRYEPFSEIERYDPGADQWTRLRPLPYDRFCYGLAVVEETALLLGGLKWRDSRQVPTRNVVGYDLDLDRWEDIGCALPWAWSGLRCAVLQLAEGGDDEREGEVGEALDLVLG
UniProt P23381: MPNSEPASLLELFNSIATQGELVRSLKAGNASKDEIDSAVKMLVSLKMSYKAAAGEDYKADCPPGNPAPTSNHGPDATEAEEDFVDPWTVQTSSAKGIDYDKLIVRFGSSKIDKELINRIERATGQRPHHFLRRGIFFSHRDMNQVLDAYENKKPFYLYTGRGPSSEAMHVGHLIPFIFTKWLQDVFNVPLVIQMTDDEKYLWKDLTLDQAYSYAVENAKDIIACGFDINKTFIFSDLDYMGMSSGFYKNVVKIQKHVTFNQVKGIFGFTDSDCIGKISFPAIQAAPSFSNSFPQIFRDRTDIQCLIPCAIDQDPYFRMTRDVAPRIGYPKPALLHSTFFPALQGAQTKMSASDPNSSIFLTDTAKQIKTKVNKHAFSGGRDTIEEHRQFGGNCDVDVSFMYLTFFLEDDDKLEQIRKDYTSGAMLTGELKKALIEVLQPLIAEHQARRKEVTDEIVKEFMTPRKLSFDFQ
UniProt Q8ND56: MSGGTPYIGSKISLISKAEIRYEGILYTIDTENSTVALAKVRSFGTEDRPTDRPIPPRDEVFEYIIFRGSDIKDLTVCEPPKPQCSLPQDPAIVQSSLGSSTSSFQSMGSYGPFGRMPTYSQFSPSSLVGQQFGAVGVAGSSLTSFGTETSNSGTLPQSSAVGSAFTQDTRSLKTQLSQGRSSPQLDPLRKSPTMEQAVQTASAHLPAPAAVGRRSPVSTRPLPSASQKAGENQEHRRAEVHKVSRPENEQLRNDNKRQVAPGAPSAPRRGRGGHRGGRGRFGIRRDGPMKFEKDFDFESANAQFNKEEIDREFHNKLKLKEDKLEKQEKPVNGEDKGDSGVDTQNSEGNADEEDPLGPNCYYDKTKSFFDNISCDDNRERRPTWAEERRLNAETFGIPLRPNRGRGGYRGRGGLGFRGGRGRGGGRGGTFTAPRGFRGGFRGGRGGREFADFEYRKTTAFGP
UniProt Q8IXM2, whole entry, looked up: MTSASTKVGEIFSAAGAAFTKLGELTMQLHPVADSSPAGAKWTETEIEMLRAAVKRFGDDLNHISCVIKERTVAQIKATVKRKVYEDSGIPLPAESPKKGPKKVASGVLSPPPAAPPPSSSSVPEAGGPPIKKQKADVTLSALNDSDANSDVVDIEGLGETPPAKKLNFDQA
UniProt O15481: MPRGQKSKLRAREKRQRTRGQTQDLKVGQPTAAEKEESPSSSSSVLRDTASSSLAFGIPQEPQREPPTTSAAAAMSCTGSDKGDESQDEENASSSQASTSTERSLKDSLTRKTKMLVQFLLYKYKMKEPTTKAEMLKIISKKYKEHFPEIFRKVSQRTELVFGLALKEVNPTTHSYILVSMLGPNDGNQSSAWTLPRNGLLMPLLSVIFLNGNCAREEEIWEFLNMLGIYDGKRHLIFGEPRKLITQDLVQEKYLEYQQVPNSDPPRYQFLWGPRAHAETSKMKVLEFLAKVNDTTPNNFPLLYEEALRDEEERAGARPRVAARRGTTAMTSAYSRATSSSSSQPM
UniProt Q9NXV2: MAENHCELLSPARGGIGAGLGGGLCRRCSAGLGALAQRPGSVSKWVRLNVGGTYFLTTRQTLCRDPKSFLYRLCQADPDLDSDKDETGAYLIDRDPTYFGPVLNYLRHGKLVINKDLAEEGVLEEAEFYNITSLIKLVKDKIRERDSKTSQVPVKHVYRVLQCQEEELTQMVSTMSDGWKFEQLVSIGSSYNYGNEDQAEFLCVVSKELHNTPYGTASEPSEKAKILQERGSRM
UniProt P40123, whole entry: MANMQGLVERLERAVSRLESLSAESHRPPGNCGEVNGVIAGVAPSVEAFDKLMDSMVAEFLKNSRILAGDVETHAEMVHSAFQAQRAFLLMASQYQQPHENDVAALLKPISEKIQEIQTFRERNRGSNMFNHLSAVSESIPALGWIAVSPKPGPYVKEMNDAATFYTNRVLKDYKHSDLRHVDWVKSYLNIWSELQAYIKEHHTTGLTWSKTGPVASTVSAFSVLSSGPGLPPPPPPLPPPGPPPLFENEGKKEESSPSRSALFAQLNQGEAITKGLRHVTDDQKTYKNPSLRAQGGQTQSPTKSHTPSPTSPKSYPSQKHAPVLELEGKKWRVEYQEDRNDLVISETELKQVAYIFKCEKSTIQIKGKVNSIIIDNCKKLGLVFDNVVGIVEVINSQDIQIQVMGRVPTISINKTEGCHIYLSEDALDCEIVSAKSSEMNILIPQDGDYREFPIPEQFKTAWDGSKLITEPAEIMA
UniProt Q99417: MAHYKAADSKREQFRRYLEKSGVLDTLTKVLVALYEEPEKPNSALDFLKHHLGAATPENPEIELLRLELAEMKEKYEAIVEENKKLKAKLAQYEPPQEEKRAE

Compound: [O-][N+](C(C1=C(C(O)=C2)NC(C(C=C3)=CC=C3Cl)C4C1C=CC4)=C2Cl)=O
Assay: melting temperature shift (compound 7 minus DMSO); higher = compound stabilises the protein
Conditions: 10 µM
Protocol: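 Thermal proteome profiling (TMT mass spectrometry) in intact DAOY medulloblastoma cells or DAOY lysates treated with 10 µM compound 7 or DMSO, heated at 10 temperatures from 40.5 to 73.8 °C for 3 min. Melting curves were fitted with the Bioconductor TPP package, and the melting point difference between compound and vehicle is reported per protein (single curve per condition).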

[1] = system: intact DAOY cells, treatment time: 90 min, 37 °C
[2] = system: DAOY cell lysate, treatment time: 20 min, 4 °C

Row | Target | melting temperature shift [1] [°C] | melting temperature shift [2] [°C]
1 | UniProt A6NKT7 | 0.0249 | –
2 | NUSAP1 (UniProt Q9BXS6) | 0.672 | 0.26
3 | HMGCL (UniProt P35914) | -0.285 | -0.122
4 | UniProt Q9NRD5 | -0.647 | –
5 | ZFAND1 (UniProt Q8TCF1) | 0.266 | -0.0693
6 | RACK1 (UniProt P63244) | -1.08 | -0.306
7 | FXR1 (UniProt P51114) | -0.316 | 0.874
8 | UniProt O14521 | – | 1.76
9 | BCAP31 (UniProt P51572) | – | 3.07
10 | SDSL (UniProt Q96GA7) | -2.39 | 0.0842
11 | UniProt A6NHG4 | 0.078 | –
12 | GTPBP4 (UniProt Q9BZE4) | 2.07 | 0.438
13 | PEX16 (UniProt Q9Y5Y5) | – | -3.34
14 | UniProt Q6ZT62 | -1.05 | –
15 | PAICS (UniProt P22234) | -0.00669 | –
16 | CACYBP (UniProt Q9HB71) | 0.156 | -0.281
17 | ABCF2 (UniProt Q9UG63) | -1.9 | -0.727
18 | ATP6V1H (UniProt Q9UI12) | 0.552 | -0.965
19 | UniProt Q9H7B2 | -0.423 | 0.782
20 | DCTD (UniProt P32321) | -5.35 | -0.253
21 | UniProt Q8N239 | 0.0487 | –
22 | SPHK1 (UniProt Q9NYA1) | 0.207 | –
23 | WARS (UniProt P23381) | -0.0564 | -1.24
24 | LSM14A (UniProt Q8ND56) | -0.069 | 0.257
25 | FGD4 (UniProt Q96M96) | – | -1.79

Row | Target | melting temperature shift [1] [°C] | melting temperature shift [2] [°C]
26 | BECN1 (UniProt Q14457) | -0.632 | 0.669
27 | TOP1 (UniProt P11387) | -0.313 | 0.158
28 | UniProt Q8IXM2 | -1.58 | 0.94
29 | MAN1A2 (UniProt O60476) | -0.91 | 1.31
30 | RAB11FIP5 (UniProt Q9BXF6) | 0.0684 | 0.219
31 | UniProt O15481 | -0.428 | –
32 | DHX40 (UniProt Q8IX18) | – | -2.45
33 | UniProt Q8N8D1 | -1.46 | –
34 | KCTD5 (UniProt Q9NXV2) | – | 1.68
35 | NOC2L (UniProt Q9Y3T9) | 0.97 | 0.0147
36 | SSRP1 (UniProt Q08945) | 0.417 | 0.635
37 | NLE1 (UniProt Q9NVX2) | 4.01 | 1.09
38 | RPL30 (UniProt P62888) | -0.227 | -1.17
39 | UniProt P35080 | 0.0668 | -0.866
40 | UniProt Q9C0K3 | 0.0809 | –
41 | TBCE (UniProt Q15813) | 0.536 | -0.662
42 | CAP2 (UniProt P40123) | 0.26 | -0.48
43 | UniProt Q9UL01 | – | 1.42
44 | NAGK (UniProt Q9UJ70) | 0.0834 | -1.18
45 | UniProt Q86SI9 | -0.564 | –
46 | UniProt O60641 | 0.939 | –
47 | UniProt Q8WVV9 | -0.922 | 1.12
48 | NUS1 (UniProt Q96E22) | -0.642 | 0.0355
49 | MRPL48 (UniProt Q96GC5) | -1.37 | 0.376
50 | UniProt Q99417 | – | 0.713

Shown as a markdown table: part of the list above

| Row | Target | melting temperature shift [1] [°C] | melting temperature shift [2] [°C] |
| --- | --- | --- | --- |
| 29 | MAN1A2 (UniProt O60476) | -0.91 | 1.31 |
| 31 | UniProt O15481 | -0.428 | – |
| 33 | UniProt Q8N8D1 | -1.46 | – |
| 37 | NLE1 (UniProt Q9NVX2) | 4.01 | 1.09 |
| 38 | RPL30 (UniProt P62888) | -0.227 | -1.17 |
| 40 | UniProt Q9C0K3 | 0.0809 | – |
| 45 | UniProt Q86SI9 | -0.564 | – |
| 47 | UniProt Q8WVV9 | -0.922 | 1.12 |
| 50 | UniProt Q99417 | – | 0.713 |

Many values rest on one well or one pass, so single values are uncertain.
